Patent US10624913B2, “Diagnostics and methods for treatment of non-alcoholic hepatic steatosis and hepatic steatohepatitis, and prevention of complications thereof” (VOLANT HOLDINGS GMBH, priority 2011, dated 2020)
Where a name gives a salt, the structure may show the parent alone.

Columns and labels:
[1] = tested on: metabolic syndrome / cardiovascular risk (FS index, CV index); assay: Cross comparison of FS index and CV index in treated patients (Example 2); assay type: in vivo, human; details: before, at 6 and 12 months, added to SoC, words
[2] = tested on: patients with multiple manifestations of MetS; assay: Treatment comparison of RYGB, Brake or atorvastatin (Lipitor), each added to standard of care (Example 3); assay type: in vivo, human; details: before, at 6 and 12 months; result in words
Description: FIG. 20. The mean age in the Brake™ plus SOC group was 50±11 years with a mean BMI of 34±5.8 and the majority of subjects were female (68%). […] Except for this large difference in baseline weight in RYGB patients, baseline metabolic characteristics were similar between case cohorts. […] There were no other significant differences in baseline lipid indices. The RYGB plus SOC group had the highest percentage of patients on diabetic or cardiovascular medications. […] All patients were given 10 gm Brake™ once Daily, orally, 4 hrs prior to their main meal Pertinent demographic and clinical data were retrieved from medical records for all patients, and shown in FIG. 21. Variables included age, gender, body weight, lipid panel (low-density lipoprotein [LDL], high-density lipoprotein [HDL], triglycerides [TG], and total cholesterol [TC]), HbA1c, and liver function tests (aspartate aminotransferase [AST] and alanine aminotransferase [ALT]). […] From the beginning, the patients who began the study with abnormal findings were separated from the patients with initially normal values and those with abnormal findings were further analyzed to define the magnitude of change as well as the percent change from baseline pre-therapy. […] Data were subsequently analyzed for percent change by biomarker from both of these two perspectives. […]

CC(C)c1c(C(=O)Nc2ccccc2)c(-c2ccccc2)c(-c2ccc(F)cc2)n1CC[C@@H](O)C[C@@H](O)CC(=O)O (relative stereo) [atorvastatin, [R—(R*,R*)]-2-(4-fluorophenyl)-β,δ-dihydroxy-5-(l-methylethyl)-3-phenyl-4-[(phenylamino)-carbonyl]-1H-pyrrole-1-heptanoic acid; calcium salt (2:1) trihydrate]
Changes in CV index over pre-treatment baseline [1]: not | Changes in FS index over pre-treatment baseline ([1]; trihydrate): not and did not change the FS index | Changes in HbA1c over pre-treatment baseline [2]: not
